Source: PubChem BioAssay AID686943 (Drosophila RNAi Screening Center, 2013)
The deposit covers about 23,000 reagents; this is an unselected part of those with a known target gene and a result. 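Extra replicates exist only for a retested subset of genes; insulin dose and duration not given; both raised and lowered dpERK matter.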 The numbers tell different reagents against one gene apart. No sequences are given here. Not stated in the record: the amount of reagent, the time to read-out.

Purpose: 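Search across the genome for regulators of signalling from receptor tyrosine kinase to ERK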 (primary screen)
Cell system: Drosophila S2R+ haemocyte-like cells expressing YFP-tagged ERK (Rolled)
Reagent: long dsRNA against Drosophila genes
Challenge: insulin stimulation versus unstimulated cells; dose and duration not given
Measurement: 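Per-plate z-scores of phospho-ERK immunostaining normalised to YFP-tagged ERK, measured with and without insulin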
Direction: replicate 1, z-score of dpERK with insulin and replicate 2, z-score of dpERK with insulin: higher = more active ERK per ERK-YFP after insulin; replicate 1, z-score of dpERK under basal conditions: higher = more basal active ERK per ERK-YFP; replicate 1, z-score of ERK-YFP with insulin: higher = more YFP-tagged ERK signal

target gene | reagent no. | replicate 1, z-score of dpERK with insulin | replicate 2, z-score of dpERK with insulin | replicate 1, z-score of dpERK under basal conditions | replicate 1, z-score of ERK-YFP with insulin
alpha-Est1 | 1 | 0.68 | -0.32 | -1.03 | -0.12
Ltn1 | 1 | 0.52 | -0.23 | 3.05 | 0.22
Ltn1 | 2 | 0.3 | -1.3 | 0.14 | -0.27
CG42271 | 1 | -0.18 | -0.43 | 0.16 | 0.09
CG42271 | 2 | 0.25 | 0.7 | -0.11 | -0.06
CG32856 | 1 | 0.23 | -0.01 | -0.31 | 0.42
Hrb98DE | 1 | -0.07 | -0.88 | 0.53 | -0.73
Uro | 1 | 0.82 | 1.09 | 0.01 | 1.17
CG10301 | 1 | -0.91 | 0.13 | -0.11 | 1.04
CG8679 | 1 | 0.79 | 0.02 | -0.07 | -0.12
Lamtor4 | 1 | 0.56 | 0.14 | 0.73 | 0.29
CG33490 | 1 | -1.07 | -1.42 | 0.48 | 0.65
CG17032 | 1 | 0.26 | 0.26 | -0.71 | 0.51
Jhbp5 | 1 | 0.33 | 0.58 | 0.02 | 0.16
CG43091 | 1 | 1.2 | -0.49 | -0.75 | 0.38
E(var)3-9 | 1 | 1.21 | -0.55 | 0.06 | -0.47
CG5026 | 1 | 0.2 | 0 | -0.19 | -0.1
CG32532 | 1 | 0.22 | 0.9 | 0.73 | 0.66
CG32532 | 2 | 0.66 | -0.06 | 0.64 | 0.15
CG32532 | 3 | 0.7 | -0.13 | 0.69 | -0.31
CG32532 | 4 | 0.89 | 0.83 | 0.26 | -0.82
Cpr72Ea | 1 | -0.06 | 0.24 | -0.26 | 0.02
CG6839 | 1 | -0.2 | -0.19 | 0.54 | 0.23
Lcp4 | 1 | -0.22 | 0.03 | 0.5 | 0.67
nod | 1 | 0.61 | 0.22 | 1.22 | 0.12
nod | 2 | -0.04 | -0.53 | -1 | 0.29

Not a retest: entries from further up.
target gene | reagent no. | replicate 1, z-score of dpERK with insulin | replicate 2, z-score of dpERK with insulin | replicate 1, z-score of dpERK under basal conditions | replicate 1, z-score of ERK-YFP with insulin
CG17032 | 1 | 0.26 | 0.26 | -0.71 | 0.51
Jhbp5 | 1 | 0.33 | 0.58 | 0.02 | 0.16
CG43091 | 1 | 1.2 | -0.49 | -0.75 | 0.38
E(var)3-9 | 1 | 1.21 | -0.55 | 0.06 | -0.47
CG5026 | 1 | 0.2 | 0 | -0.19 | -0.1
CG32532 | 1 | 0.22 | 0.9 | 0.73 | 0.66
CG32532 | 2 | 0.66 | -0.06 | 0.64 | 0.15

Continued.
target gene | reagent no. | replicate 1, z-score of dpERK with insulin | replicate 2, z-score of dpERK with insulin | replicate 1, z-score of dpERK under basal conditions | replicate 1, z-score of ERK-YFP with insulin
CG3199 | 1 | -0.01 | -1.5 | -0.08 | 0.03
spab | 1 | 0.7 | 0.57 | 0.41 | -0.29
CG2145 | 1 | 0.13 | -0.18 | -0.94 | 0.03
Ran-like | 1 | 0.36 | -0.53 | 0.67 | 0.51
CG3638 | 1 | 0.29 | 1.71 | 0.16 | -0.1
CG4074 | 1 | -0.48 | -0.65 | 0.14 | 0.36
Amyrel | 1 | -0.5 | 0.16 | -0.2 | -0.17
CG11815 | 1 | 0.23 | 0.37 | 0.11 | 0.12
Dtwd2 | 1 | -0.04 | 0.54 | 1.75 | -0.5
CG12426 | 1 | 0.55 | 0.08 | -0.13 | 0.07
dpr9 | 1 | -1.03 | -0.78 | -0.47 | 2.16
dpr9 | 2 | -0.78 | -1.63 | -0.43 | -0.05
dpr9 | 3 | 0.69 | -1.55 | -0.33 | 1.46
CG18284 | 1 | 0.13 | 0.53 | 0.97 | 0.25
CG18284 | 2 | 0.3 | -0.65 | -0.64 | -0.54
vex | 1 | 0 | 0.29 | 0.1 | 0
vex | 2 | 0.32 | 0.49 | -1.61 | 0.3
vex | 3 | 0.2 | 0.63 | -0.63 | -1.24
CG9630 | 1 | 0.36 | 0.38 | -0.47 | -3.05
mbo | 1 | 0.45 | 2.54 | 1.24 | 1.08
SuUR | 1 | 0.38 | -0.33 | 0 | 0.1
CG32683 | 1 | 0.07 | -0.27 | 1.27 | -0.01
CG32683 | 2 | 1.81 | 0.52 | 0.13 | -0.44
CG32683 | 3 | -0.69 | 0.5 | 1.23 | 1.73
Ykt6 | 1 | 1.04 | 0.44 | 1.14 | -0.19
CG11674 | 1 | 0.24 | -0.28 | 0.24 | 0.18
CG11980 | 1 | 0.03 | -0.08 | 0.14 | 0.17
CG7049 | 1 | 0.69 | 0.73 | 0.04 | -0.56
CG16896 | 1 | 1.14 | 0.23 | -0.45 | -0.47
Tim17a1 | 1 | 0.47 | 0.52 | 0.75 | 0.18
caup | 1 | 0.08 | -3.12 | -2.01 | -0.07
CG10970 | 1 | 1 | 0.51 | -0.37 | 0.02
CG11345 | 1 | 0.15 | 0.17 | -0.52 | 0.97
CG3246 | 1 | 0.15 | 0.92 | 0.14 | 0.97
Pglym87 | 1 | -0.52 | -0.11 | -0.33 | 0.26
CG14088 | 1 | -0.94 | 0.2 | 0.68 | 0.66
Ir94e | 1 | 1.81 | 0.59 | 0.26 | -0.08
UQCR-14 | 1 | -0.18 | 0.34 | 0.13 | 2
CG15641 | 1 | 0 | 0.31 | 2.16 | -0.13
CG32017 | 1 | -0.33 | 0.01 | -0.06 | 0.05
CG3880 | 1 | 0.36 | 0.52 | 1.03 | 0.56
CG3880 | 2 | -2.43 | -0.19 | -1.39 | -0.44
CG5742 | 1 | -0.14 | -0.22 | -0.28 | 1.03
pyx | 1 | 0.12 | 0.61 | 0.42 | 0.09
pyx | 2 | -1.73 | -0.98 | 0.73 | 1.17
jet | 1 | 0.81 | -0.24 | -0.04 | -0.01
CG12560 | 1 | -0.16 | -0.16 | -0.03 | -0.07
